From article PMC7862700 come the findings set out here.

By UniProt entry, the sequences of proteins in these tests, tags left out. Where a name states a change or a piece, a line headed by the entry shows the natural chain unless it says otherwise.
UniProt Q00613: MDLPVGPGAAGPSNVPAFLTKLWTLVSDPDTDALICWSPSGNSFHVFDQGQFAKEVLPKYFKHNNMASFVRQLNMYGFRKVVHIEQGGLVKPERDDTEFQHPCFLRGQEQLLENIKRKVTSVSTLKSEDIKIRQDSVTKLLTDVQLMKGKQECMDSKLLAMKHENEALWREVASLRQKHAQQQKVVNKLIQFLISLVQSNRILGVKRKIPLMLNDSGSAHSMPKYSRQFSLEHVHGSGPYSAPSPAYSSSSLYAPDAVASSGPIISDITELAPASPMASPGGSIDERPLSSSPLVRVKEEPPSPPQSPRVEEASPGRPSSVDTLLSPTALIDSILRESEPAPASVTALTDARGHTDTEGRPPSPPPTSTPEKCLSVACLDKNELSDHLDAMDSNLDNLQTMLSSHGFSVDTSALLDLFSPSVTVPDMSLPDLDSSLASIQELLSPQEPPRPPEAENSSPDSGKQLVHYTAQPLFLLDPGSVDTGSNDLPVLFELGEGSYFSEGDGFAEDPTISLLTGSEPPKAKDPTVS

This is a selection; strong and weak results do not stand in their true shares. At the low end of the ranking, values are background and their order means little.

The assay has as its target HSF1 (UniProt Q00613). In words: DAPPL (digital affinity profiling via proximity ligation, sequencing). The conditions noted are these: 10 mM Tris-HCl pH 7.5, 50 mM NaCl, 1 mM DTT, 4% glycerol, room temperature, 30 min; GST-TFs on glutathione beads, 16-mer random dsDNA library, 0.1% …; high values mean tight binding; double strand, one strand shown; scale: fold enrichment (6-mer frequency, TF over GST control).
Consider ATTAAC, for which the binding signal is 2.07. The figure for ACAGCA is 0.828; for ATCGCT it is 1.08; for CGCTTA it is 1.53. With TAGCTG the figure was 1.23. In the case of GTATCA, the binding signal was found to be 0.849.

In the case of CGACAG, the binding signal worked out at 0.91.

Regarding AATATG, the binding signal is 1.12. Sequence CGCGCA registered a binding signal of 0.939.

TCAGAT came in with a binding signal of 1.21.

GCACAA: the binding signal was determined as 0.883. CAGCCT returned a binding signal of 0.97.

As to ACACCA, the binding signal is 0.806.

The sequence AGTGTC gave a binding signal of 0.75. The figure for CATATC is 0.914; for TATGCC it is 1.06.

AAACAG had a binding signal of 0.832.

As to TTCCCG, the binding signal turned out to be 2.46. With ACACGC the figure was 0.912. With GGTGTT the figure was 0.968. The figure for CAAGTT is 0.933; for ATAGTG it is 0.822; for TGGTCA it is 0.753. As to CTGGTG, the binding signal came out at 0.859. The figure for AGTGCA is 0.747; for TTACCT it is 1.45; for CAGCTC it is 0.937. CATGTT returned a binding signal of 0.956. ATCACA: the binding signal turned out to be 0.97. ACTTCG: the binding signal amounted to 1.65. With CGTAGC the figure was 0.882. With ACGCCG the figure was 0.862. Take GGCATA: the binding signal amounted to 0.877. With TTGTCA the figure was 0.94; with GTGTTG, 0.709. In the case of GGTCTG, the binding signal came to 0.791. With TACGGA the figure was 0.951; with TGACGC, 0.969.

For the sequence CCGCCA, the binding signal came out at 0.994.
